# Data from PubChem BioAssay AID1508600 (Functional Genomics Laboratory (NCATS/FGL), 2020).
# Among all 53,000 sequences or so, about 3,700 (7%) were called active.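 Rule for the calls: active = gene knockdowns whose robust z-score for IL-1 alpha signal is at least 2 or at most -2, so actives lie on both sides; inactive = the rest.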 Some of the results follow.
# Assay: Components of the Cytosolic LPS Sensing Pathway: Gene Identification via Genome-wide siRNA Screen;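 note: robust z of the log signal after scaling to non-targeting control siRNA wells of the plate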
# Conditions: RAW264.7 macrophages, IL-1a HTRF, actives lie on both sides, screened at 100 nM (by protocol), cells primed 5 h with Pam3CSK4 first
# In short: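 Read-out: IL-1a HTRF on supernatant, divided by plate negative-control median ×100, log-transformed and converted to robust z-score. Cells were RAW264.7 given 100 nM siRNA, Pam3CSK4-primed 5 hours, then LipidA-transfected 24 hour.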
row,Sequence,z-score
1,GGUGCUAAGUAUUCUUAUCTT against Ppp6r3,inactive: 0.15
2,GGUAAACGGAUGGAAUGGGTT against Gspt2,inactive: -0.0532
3,GGUACAUGAUCAAUUUAGATT against Tspyl4,inactive: 0.726
4,GCUUGCUUAUGGCCUAUUATT against Ucma,active: -2.05
5,GGUAUUGUGGAAAUUCCCATT against Dennd1b,inactive: -1.54
6,GGCCAUCAAACACCAGGUGTT against Plxnb2,inactive: -1.38
7,GCUGUCAAGGAUCAUCCCATT against Ano1,inactive: -0.532
8,GGACAUUCAACUGUACCACTT against Selenom,inactive: 1.34
9,GCUAAGUUGCUUGUCUUUATT against Acox1,inactive: 0.233
10,GGUGCAUGACCUGACAAAGTT against Fermt3,active: 2.5
11,GUACCAGAAGUGAGUUCAGTT against Leap2,active: -2.97
12,GGUGGAAAGGAACAUUGUGTT against Ppl,inactive: -0.311
13,CCAAUACCCUCAAGAUUCUTT against Itih5,inactive: 0.318
14,GGUUAUCUCAAAACUCGACTT against Prox2,inactive: -0.119
15,GCGUGUGACCAGAUUCGUCTT against Slc1a2,inactive: 0.0872
16,CGAGUCUCCCUGGACAUUGTT against Rara,inactive: -1.27
17,GCUUUUGCACUGGAGAAGUTT against Glra3,inactive: -0.918
18,CCUCAUGAUCAAAGUGCGGTT against Tmprss6,inactive: -0.226
19,CAUCAAGACAUGACCGUCCTT against AI413582,inactive: 1.25
20,GGGAAUGACGCAUCUUGAATT against Pdlim5,inactive: 1.47
21,GGUACACCAAGGCUUGCUATT against Coq8b,inactive: -0.343
22,CCUUGCUAGCCGCCACUUUTT against Trmt112,inactive: -1.34

# 7 successive entries from above, for reference:
row,Sequence,z-score
11,GUACCAGAAGUGAGUUCAGTT against Leap2,active: -2.97
12,GGUGGAAAGGAACAUUGUGTT against Ppl,inactive: -0.311
13,CCAAUACCCUCAAGAUUCUTT against Itih5,inactive: 0.318
14,GGUUAUCUCAAAACUCGACTT against Prox2,inactive: -0.119
15,GCGUGUGACCAGAUUCGUCTT against Slc1a2,inactive: 0.0872
16,CGAGUCUCCCUGGACAUUGTT against Rara,inactive: -1.27
17,GCUUUUGCACUGGAGAAGUTT against Glra3,inactive: -0.918

# Additional entries follow:

row,Sequence,z-score
1,GCUGUCAUAAGUACUAAAUTT against Slc37a2,inactive: 1.49
2,GGAAGACAGAGAAACUCUATT against Clgn,inactive: 2
3,GACAACUUUUCCCUGUCAUTT against Prm3,inactive: -0.86
4,CGAAGUUUGACACCUAUAUTT against Tinf2,inactive: -1.16
5,CCCAAGAUCUAAGAGUAUUTT against Rin3,inactive: -1.18
6,GGUCUGCUUUGUGCUGAUGTT against Olfr983,inactive: 0.643
7,UGGCUGAUAUGAAGGUCUGTT against Krtap31-2,inactive: 0.154
8,GCUGGGAUAUUACAUUCUATT against Thap2,inactive: 1.29
9,GGAAUAGGAAAUUAGCACATT against Thnsl1,inactive: 1.19
10,GGGUAACAGAUGAAGGGUCTT against Synpo2l,active: 2.48
11,GGAAAGUCCUUCCUUUUGGTT against Rnf112,inactive: -0.751
12,GGCCGUGAAACACUUUCGUTT against Lgi3,inactive: 0.26
13,GACUUCUCCUGACAGGCUGTT against Olfr61,inactive: -1.81
14,GGCAGUAACUCAUGUGCCUTT against Natd1,inactive: 0.56
15,GGCUGUGACUUGUUAAUCATT against Tafa5,inactive: -0.346
16,GGAAAUCUGAAGAAUCAAGTT against Zup1,inactive: -0.621
17,GCCCGCGUUGCCUAAGUAUTT against Elavl4,inactive: 1.63
18,GGCAUUUACUACUUCAUAGTT against Nfam1,inactive: 0.738
19,CCACUGUGCUCAAUUUGCATT against Slc9a2,inactive: -0.372
20,GGUGACCACACCUUCAAAGTT against L3mbtl4,inactive: -0.212
21,CCUAUUCAGUCGCUCAGAGTT against Pacs1,inactive: -1.34
22,GGAAUAAGUACCUCAUCUUTT against Fbxw5,inactive: -0.867

# Quoted at random: two entries already listed, in no set order.
row,Sequence,z-score
11,GGAAAGUCCUUCCUUUUGGTT against Rnf112,inactive: -0.751
17,GCCCGCGUUGCCUAAGUAUTT against Elavl4,inactive: 1.63

# (list continues)

row,Sequence,z-score
1,GGAGAACUGUAAAUAAACUTT against Duoxa2,active: -2.1
2,GGUACAAAGUACAAGCCGUTT against Sowahd,inactive: 1.1
3,AAGCGGAACUUCAGUAGCGTT against Zmiz2,inactive: 1.35
4,GGCCUUGAUAAUGUUCGACTT against Coq6,inactive: 1.25
5,GGCGAAUUGAAGGAGACCATT against Tmod3,active: 2.54
6,GGUGAACUGUAAUGGCUUCTT against Smyd2,inactive: -0.209
7,CCUGCAUUUACUCAACUUGTT against Snrpe,inactive: -1.74
8,GGCUACGCUUUUAUUUCCCTT against Jak3,inactive: 1.02
9,GCAGUGUUCGAAGAUAUGATT against Ehhadh,inactive: 0.286
10,GGAUGCACUGAUUUGGUUATT against Ptger2,inactive: 0.956
11,GGAUCAAAAAAAAACUGGATT against Sinhcaf,inactive: 1.19
12,GGGUUUUUAUACUAGUUUGTT against Exosc4,inactive: 0.384
13,GGCUUGUGUUUCUAUCUUUTT against Cct8,inactive: -0.867
14,GGUGGUUGUUAUUGAAAAGTT against Mical3,inactive: 1.34
15,CCUUAUUUAGCUAAGCAGATT against Ran,active: -2.95
16,GGUGACUACUACACGGACUTT against Cdkl1,inactive: -1.25
17,GGAUUCAGCAAAUGCUUCCTT against Rcor3,active: 2.31
18,CCUCUUUCUAGAGCGCAUCTT against Kcnk12,inactive: 0.0784
19,GGUGCAUACACUGAAGGAATT against Golga2,inactive: 0.331
20,GCCGUGCUAUGUAUUAUUCTT against Twf1,inactive: -1.3
21,GGUGCAACACUCUCUAUUUTT against Afap1l1,inactive: 0.963
22,GCCCGUAUGGAUUUCACACTT against Dynlt3,inactive: -0.679

row,Sequence,z-score
1,GGAUCCUUAAUCGAUACACTT against Gng3,active: 2.38
2,GGCACACACUGAUUUUUUUTT against Cops2,inactive: 0.0987
3,GGUGAUCCCAUUGUUUAUUTT against Fndc3c1,inactive: 0.814
4,CCAGACUUCUUGUAGUUAUTT against Tpx2,inactive: -0.875
5,CCCUCACUUAUAGAAGAUUTT against Nat2,inactive: -0.793
6,GCAGAUUGACUUCUCGGCUTT against Pakap,inactive: 0.258
7,GGGCAUGGGAUUUAAUUCUTT against Dnajc11,inactive: 1.54
8,CCUGCAUACGAAGUACAUATT against Bsg,active: 2.75
9,GGAAGAAAUUCCUAAUGAATT against Igsf11,inactive: -1.01
10,GCAAGUGGUUGAUUGAGAATT against Nsmce1,inactive: -0.307
11,GGCUGAUGACACUUACACATT against Vmn1r84,inactive: -0.566
12,GCAAGGUCAAUCAAUCGUATT against Taar1,inactive: 0.548
13,GCUACUUUGACAUGCACACTT against Caly,active: 2.1
14,CCUGAACCAACAACGCAAATT against Patz1,inactive: -0.342
15,GCUUCACCUGACAAUGACUTT against Tsc22d3,inactive: 1.2
16,CCUGAACUGAAAUUCCAUGTT against Ftmt,inactive: -0.417
17,GGGUGGAGAAAUUUUAAUGTT against Dse,inactive: -0.22
18,GGAGCUGAGUGAAACUCUUTT against Kcnv1,inactive: 1.03
19,GGUAUAUCGCCUAAUCACUTT against Chd6,inactive: -0.885
20,GGAUCACUGGCACCAAUGUTT against Clca3a1,inactive: -0.0483
21,GGCAGGUAUGCAGUGAAGATT against Paqr9,inactive: -1.63
22,GGAAUAAGAGGAAGGUUACTT against Nanos2,inactive: 0.148

row,Sequence,z-score
1,CGACAUCCCAAUAAACAAGTT against Lcn3,inactive: -1.1
2,GGAUGAUAGCGCAAAAGAUTT against Tmem165,inactive: 0.279
3,GGCUCAACUUUUGUGAUUCTT against Olfr895,inactive: -1.45
4,GGAAGAAGCUGAGGAAAGCTT against Spata1,inactive: 0.15
5,GGAAGAUAGACUUCCUCACTT against Pfdn5,inactive: -1.26
6,GGAAAUCAAGAAGUUUGAATT against Gmds,inactive: 0.119
7,CCACGUAUUUAAAUAGUUCTT against Gdf3,inactive: -0.149
8,GCUAAGCCCUACAUGACCATT against Plcb2,inactive: -1.82
9,CCCGCACACCAAUUUCACGTT against Rnf128,inactive: -0.069
10,CGUUCUUUCAAGAAAGCAATT against Ubald2,inactive: -1.79
11,GGCCAACAUCAAAAUCGCCTT against Mark4,inactive: -0.111
12,CCUUUGUCCAUGUUACCGATT against Rps14,inactive: 0.33
13,CCUUGGUGGUCUGAAAUAATT against Cyp4a31,inactive: -0.159
14,GCUUAAUUCUUUUCAACGUTT against Gng2,inactive: -1.66
15,GGUGGUAUCGAUUUUGCUUTT against Cbx7,inactive: -0.344
16,CCUUGGUCUGAUCGACUUGTT against Gadd45g,inactive: 0.748
17,GGUGUUAGCGAAAUGCUCATT against Prl7b1,inactive: -0.875
18,CGACCUGAAAGAUUCGGAATT against Ppara,inactive: -1.04
19,GGGAGCUAUGUUGUUAAAATT against Amotl2,inactive: 0.251
20,GGUUAUUCAAAAAUGCAACTT against Rcor1,inactive: -0.559
